Assay results published in paper PMC10079926.
No constants are given. Whether binding was seen depends on the method and setting. In cells and extracts the contact can be indirect. A result given as binding can be weak or reduced; the word gives no strength.

Amino acid sequences for entries named in this document (tags omitted). A change or cut given only in a name is not applied to a line headed by its entry. Residues count along the entry.
UniProt Q5GJ75: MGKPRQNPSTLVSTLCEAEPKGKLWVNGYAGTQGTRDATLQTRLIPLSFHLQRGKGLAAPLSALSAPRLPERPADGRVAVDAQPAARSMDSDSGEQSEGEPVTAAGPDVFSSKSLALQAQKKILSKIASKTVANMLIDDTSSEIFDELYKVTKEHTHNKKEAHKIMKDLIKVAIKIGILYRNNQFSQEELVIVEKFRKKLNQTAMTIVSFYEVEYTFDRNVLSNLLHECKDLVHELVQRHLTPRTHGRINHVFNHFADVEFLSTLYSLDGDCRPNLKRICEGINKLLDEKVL
UniProt Q07812: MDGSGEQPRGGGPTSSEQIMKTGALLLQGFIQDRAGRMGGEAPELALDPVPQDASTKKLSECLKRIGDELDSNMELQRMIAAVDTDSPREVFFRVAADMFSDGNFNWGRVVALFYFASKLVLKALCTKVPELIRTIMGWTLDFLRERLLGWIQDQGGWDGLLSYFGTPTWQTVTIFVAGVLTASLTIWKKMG
UniProt P19404, residues 33-249: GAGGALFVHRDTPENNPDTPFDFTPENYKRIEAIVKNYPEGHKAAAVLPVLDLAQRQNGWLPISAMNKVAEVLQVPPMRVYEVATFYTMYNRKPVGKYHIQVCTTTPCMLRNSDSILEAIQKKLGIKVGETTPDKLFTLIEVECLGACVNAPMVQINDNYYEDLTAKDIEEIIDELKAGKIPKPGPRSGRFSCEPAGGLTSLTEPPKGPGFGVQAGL
UniProt O00429: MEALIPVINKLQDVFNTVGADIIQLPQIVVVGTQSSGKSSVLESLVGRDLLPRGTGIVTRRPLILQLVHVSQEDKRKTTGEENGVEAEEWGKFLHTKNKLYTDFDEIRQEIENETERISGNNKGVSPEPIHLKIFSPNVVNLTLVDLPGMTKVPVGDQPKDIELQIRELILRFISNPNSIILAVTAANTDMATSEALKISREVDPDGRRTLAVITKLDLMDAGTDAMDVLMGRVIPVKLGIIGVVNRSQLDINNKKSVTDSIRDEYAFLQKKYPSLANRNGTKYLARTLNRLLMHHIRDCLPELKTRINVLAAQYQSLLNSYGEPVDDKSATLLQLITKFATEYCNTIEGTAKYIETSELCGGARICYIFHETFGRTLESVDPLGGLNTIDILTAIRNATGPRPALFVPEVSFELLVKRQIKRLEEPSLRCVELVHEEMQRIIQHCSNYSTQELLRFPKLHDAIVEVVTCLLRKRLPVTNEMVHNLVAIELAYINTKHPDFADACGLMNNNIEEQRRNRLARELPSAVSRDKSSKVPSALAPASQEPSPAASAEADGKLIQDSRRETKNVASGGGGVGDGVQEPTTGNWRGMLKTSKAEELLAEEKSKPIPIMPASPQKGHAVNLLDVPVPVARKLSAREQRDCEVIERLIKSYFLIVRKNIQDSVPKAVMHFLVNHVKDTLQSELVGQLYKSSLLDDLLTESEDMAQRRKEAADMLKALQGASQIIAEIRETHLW
UniProt O75947: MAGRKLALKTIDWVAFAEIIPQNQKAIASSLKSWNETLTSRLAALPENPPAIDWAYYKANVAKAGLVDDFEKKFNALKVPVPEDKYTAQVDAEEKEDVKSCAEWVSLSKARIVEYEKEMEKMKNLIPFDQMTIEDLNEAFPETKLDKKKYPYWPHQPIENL

Target: TIPE3-HA (full-length TIPE3, TNFAIP8L3) (UniProt Q5GJ75)
Assay: co-IP; co-IP/WB in Cal33 and HN6 cells expressing TIPE3-HA (or trTIPE3-HA, NT-HA); IP lysis buffer, antibody overnight at 4 °C, protein A/G Sepharose beads; anti-IgG as negative control

## BAX (from UniProt Q07812 1-192)
  binding: binds

## NDUFV2 (Complex I) (from UniProt P19404 33-249)
  binding: binds

## DRP1 (dynamin-like protein) (from UniProt O00429 1-736) (enzyme)
  binding: no binding

## ATP5H (Complex V) (from UniProt O75947 1-161)
  binding: binds
